According to patent US20100169988A1, “MEANS AND METHODS FOR ISOLATING AND DETERMINING NOVEL TARGETS FOR THE TREATMENT OF NEURODEGENERATIVE, NEUROLOGICAL OR NEUROPSYCHIATRIC DISORDERS AND COMPOSITIONS COMPRISING THE SAME” (priority 2006, published 2010):
Results are given in words; binding and its absence hold for the method and conditions named. Binding seen in cells or lysates may run through a third protein. Some results given as binding are weak or reduced against the parent protein; the word gives no strength.

Legend:
AICD(wt) peptide = biological target: T1, AICD(wt) peptide; test: bait peptide pull-down from SH-SY5Y lysate, Western blot
T1 sequence (peptide, N-terminal biotin via a hydrophilic linker): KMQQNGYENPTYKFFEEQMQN

PrSciAICD(wt) = biological target: T2, PrSciAICD(wt); test: PrSciAICD pull-down from SH-SY5Y lysate, PreScission elution, Western blot
T2 sequence (peptide, N-terminal biotin via a hydrophilic linker): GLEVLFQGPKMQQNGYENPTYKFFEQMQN

B1: X11α (protein, human, UniProt Q02410 1-837, looked up)
chain: MNHLEGSAEVEVTDEAAGGEVNESVEADLEHPEVEEEQQQPPQQQHYVGRHQRGRALEDLRAQLGQEEEERGECLARSASTESGFHNHTDTAEGDVIAAARDGYDAERAQDPEDESAYAVQYRPEAEEYTEQAEAEHAEATHRRALPNHLHFHSLEHEEAMNAAYSGYVYTHRLFHRGEDEPYSEPYADYGGLQEHVYEEIGDAPELDARDGLRLYEQERDEAAAYRQEALGARLHHYDERSDGESDSPEKEAEFAPYPRMDSYEQEEDIDQIVAEVKQSMSSQSLDKAAEDMPEAEQDLERPPTPAGGRPDSPGLQAPAGQQRAVGPAGGGEAGQRYSKEKRDAISLAIKDIKEAIEEVKTRTIRSPYTPDEPKEPIWVMRQDISPTRDCDDQRPMDGDSPSPGSSSPLGAESSSTSLHPSDPVEASTNKESRKSLASFPTYVEVPGPCDPEDLIDGIIFAANYLGSTQLLSDKTPSKNVRMMQAQEAVSRIKMAQKLAKSRKKAPEGESQPMTEVDLFISTQRIKVLNADTQETMMDHPLRTISYIADIGNIVVLMARRRMPRSNSQENVEASHPSQDGKRQYKMICHVFESEDAQLIAQSIGQAFSVAYQEFLRANGINPEDLSQKEYSDLLNTQDMYNDDLIHFSKSENCKDVFIEKQKGEILGVVIVESGWGSILPTVIIANMMHGGPAEKSGKLNIGDQIMSINGTSLVGLPLSTCQSIIKGLKNQSRVKLNIVRCPPVTTVLIRRPDLRYQLGFSVQNGIICSLMRGGIAERGGVRVGHRIIEINGQSVVATPHEKIVHILSNAVGEIHMKTMPAAMYRLLTAQEQPVYI
Question: Which binding (AICD(wt) peptide) does the source give for B1 here?
Answer: binds

Question: And the binding (PrSciAICD(wt))?
Answer: binds
